Test results: PubChem BioAssay AID1259354 (Paczesny and Yang Labs, IUPUI and University of Michigan, 2018)
“And” between values parts separate entries of the source, which are not always exact repeats. Identical values can stand only once. Out of some 78,000 compounds screened, about 1,800 (2.3%) were called active. Inconclusive means that the source gave no clear call. Such entries were picked first, then a sample of the others. No stated cut-off is given here; in the data, active means inhibition above about 30%; inconclusive means mostly about 10% to 28%; inactive means weaker than that.

By UniProt entry, the sequences of proteins in these tests, tags left out. Where a name states a change or a piece, a line headed by the entry shows the natural chain unless it says otherwise.
UniProt Q01638: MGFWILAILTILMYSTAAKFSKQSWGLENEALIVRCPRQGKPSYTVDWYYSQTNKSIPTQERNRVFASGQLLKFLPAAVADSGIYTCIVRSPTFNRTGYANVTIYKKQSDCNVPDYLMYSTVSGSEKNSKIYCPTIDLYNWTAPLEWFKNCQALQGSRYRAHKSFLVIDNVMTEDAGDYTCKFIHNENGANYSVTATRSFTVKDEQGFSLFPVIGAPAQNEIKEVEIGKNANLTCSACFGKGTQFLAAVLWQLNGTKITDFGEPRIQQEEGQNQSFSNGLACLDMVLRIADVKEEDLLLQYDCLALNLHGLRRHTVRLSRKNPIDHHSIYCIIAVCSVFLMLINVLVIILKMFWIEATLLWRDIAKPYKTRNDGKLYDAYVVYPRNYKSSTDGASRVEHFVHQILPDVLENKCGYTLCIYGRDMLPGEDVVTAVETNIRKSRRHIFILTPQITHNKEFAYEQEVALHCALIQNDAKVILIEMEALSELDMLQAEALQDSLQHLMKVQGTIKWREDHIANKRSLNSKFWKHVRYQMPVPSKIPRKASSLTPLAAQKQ

Target: Interleukin-1 receptor-like 1 (Homo sapiens) (UniProt Q01638)
Experiment: blocks human ST2 binding to IL-33, primary screen, biochemical, AlphaLISA (AID 1259354)
Settings: AlphaLISA ST2-Fc/biotin-IL-33 interaction, 1 h; at 17 µM, hits give high values

Structure (SMILES) | inhibition
CCOc1ccc(C2CC(c3ccccc3)Nc3nc(N)nn32)cc1 (configuration not stated) | inconclusive: 17%
COc1ccc(/C=C2\C(=O)N(c3ccc(Cl)c(C(=O)O)c3)N=C2C)cc1Br | active: 72%
CC1CCN(C(=O)c2cc(Br)cc(Br)c2)CC1 | inactive
CCc1cc(NCC2CNCCOC2)nc(N2CCCCC2)n1 (configuration not stated) | inactive
COc1ccc(-c2cn3c4ccccc4nc3n2CCN2CCCCC2)cc1 | inconclusive: 21%
O=C(Cn1cnc2c(oc3ccccc32)c1=O)Nc1cccc(Cl)c1 | inactive
O=C(Nc1cccc2ccccc12)O[C@@H]1CO[C@H]2[C@@H]1OC[C@@H]2NC(=O)N1CCOCC1 | inconclusive: 18%
O=[N+]([O-])c1ccccc1OCCOc1cccc2cccnc12 | inactive
NC(=O)[C@@H](Cc1c[nH]c2ccccc12)NC(=O)[C@@H]1C[C@@H](NS(=O)(=O)c2cccs2)CCN1C(=O)CSCC(=O)O | inconclusive: 17%
O=C1CSC(c2ccc(Cl)cc2)N1c1cccc(F)c1 (configuration not stated) | inactive
CC(=O)Nc1ccc(NC(=O)C2(S(=O)(=O)c3ccc(Cl)cc3)CC2)cc1 | inconclusive: 10%
COc1ccc(-n2ncc3c(N4CCN(C)CC4)ncnc32)cc1 | inactive
Cc1cccc(C2=N/C(=C\c3c(F)cccc3Cl)C(=O)O2)c1 | inactive
CCOc1ccc(C2CC(=O)N3CN(c4ccc(F)cc4)CSC3=C2C#N)cc1 (configuration not stated) | inconclusive: 21%
CCNc1ccc(N)c(C)c1C | active: 79%
CCCC1COCCN1Cc1ncc[nH]1 (configuration not stated) | inconclusive: 13%
Cc1ccc(C(CC(=O)N2CCCC2)c2ccccc2)cc1 (configuration not stated) | inconclusive: 13%
COc1ccc(OCCCNC(C)c2ccccc2)cc1 (configuration not stated) | inconclusive: 10%
Cc1cccc(C2=N/C(=C\c3ccc([N+](=O)[O-])cc3)C(=O)O2)c1 | inconclusive: 12%
CC(Cc1ccccc1)NC(=O)C1CCCNC1=O (configuration not stated) | inconclusive: 12%
CC(C)(CO)CNC(=O)CC(c1ccccc1)c1ccc(F)cc1 (configuration not stated) | inconclusive: 15%
Cc1cc([N+](=O)[O-])ccc1N1C(=O)C2C3c4ccccc4C(CO)(c4ccccc43)C2C1=O (configuration not stated) | inconclusive: 16%
Cc1ccc(C)c(OCCn2cc(C=C3C(=O)N(C)C(=O)N(C)C3=O)c3ccccc32)c1 | inconclusive: 14%
O=C(CNC(=O)Cn1ccc2ccccc2c1=O)NCc1ccccn1 | inconclusive: 14%
Cc1cc(NC(=O)COc2ccccc2)no1 | inconclusive: 13%
Cc1cc(C)nc(NC(c2ccco2)c2ccc3cccnc3c2O)n1 (configuration not stated) | inconclusive: 10%
Nc1ccc2oc3ccc(N)cc3c(=O)c2c1 | inconclusive: 20% and inconclusive: 12%
